Some of these results come from one statement about several compounds together.
Target: T1, KRas wild-type (Homo sapiens, UniProt P01116)
T1 construct: host or cells: MKN-45 human gastric adenocarcinoma cells
Test: MKN-45 Cellular Active RAS GTPase ELISA (KRas Wild-Type)
Format: cell-based
Conditions: PANC-1 (G12D) versus MKN-45 (wild-type) RAS GTPase ELISA

Compound | selective inhibition preference for KRas G12D mutant over KRas wild-type
CN1CCC[C@H]1COc1nc(N2CC3CCC(C2)N3)c2cc(Cl)c(-c3ccc(F)c4sc(N)c(C#N)c34)c(F)c2n1 (single isomer, unassigned) [Example 3] | greater than 7 fold
CN1C[C@H](F)C[C@H]1COc1nc(N2CC3CCC(C2)N3)c2cc(Cl)c(-c3ccc(F)c4sc(N)c(C#N)c34)c(F)c2n1 (single isomer, unassigned) [Example 4] | greater than 7 fold
N#Cc1c(N)sc2c(F)ccc(-c3c(Cl)cc4c(N5CC6CCC(C5)N6)nc(OC[C@@]56CCCN5C[C@H](F)C6)nc4c3F)c12 (single isomer, unassigned) [Example 7] | greater than 7 fold
N#Cc1c(N)sc2c(F)ccc(-c3c(Cl)cc4c(N5CC6CCC(C5)N6)ncnc4c3F)c12 [Example 33, 2-Amino-4-[6-chloro-4-(3,8-diazabicyclo[3.2.1]octan-3-yl)-8-fluoro-quinazolin-7-yl]-7-fluoro-benzothiophene-3-carbonitrile] | greater than 7 fold

Reference: patent publication US20240228511A1, “SUBSTITUTED FUSED AZINES AS KRAS G12D INHIBITORS” (Eli Lilly and Company, priority 2021, published 2024)
